## Library screen at single concentrations

Amino acid sequences for entries named in this document (tags omitted). Residues count along the entry.
UniProt I6X8D2, whole entry: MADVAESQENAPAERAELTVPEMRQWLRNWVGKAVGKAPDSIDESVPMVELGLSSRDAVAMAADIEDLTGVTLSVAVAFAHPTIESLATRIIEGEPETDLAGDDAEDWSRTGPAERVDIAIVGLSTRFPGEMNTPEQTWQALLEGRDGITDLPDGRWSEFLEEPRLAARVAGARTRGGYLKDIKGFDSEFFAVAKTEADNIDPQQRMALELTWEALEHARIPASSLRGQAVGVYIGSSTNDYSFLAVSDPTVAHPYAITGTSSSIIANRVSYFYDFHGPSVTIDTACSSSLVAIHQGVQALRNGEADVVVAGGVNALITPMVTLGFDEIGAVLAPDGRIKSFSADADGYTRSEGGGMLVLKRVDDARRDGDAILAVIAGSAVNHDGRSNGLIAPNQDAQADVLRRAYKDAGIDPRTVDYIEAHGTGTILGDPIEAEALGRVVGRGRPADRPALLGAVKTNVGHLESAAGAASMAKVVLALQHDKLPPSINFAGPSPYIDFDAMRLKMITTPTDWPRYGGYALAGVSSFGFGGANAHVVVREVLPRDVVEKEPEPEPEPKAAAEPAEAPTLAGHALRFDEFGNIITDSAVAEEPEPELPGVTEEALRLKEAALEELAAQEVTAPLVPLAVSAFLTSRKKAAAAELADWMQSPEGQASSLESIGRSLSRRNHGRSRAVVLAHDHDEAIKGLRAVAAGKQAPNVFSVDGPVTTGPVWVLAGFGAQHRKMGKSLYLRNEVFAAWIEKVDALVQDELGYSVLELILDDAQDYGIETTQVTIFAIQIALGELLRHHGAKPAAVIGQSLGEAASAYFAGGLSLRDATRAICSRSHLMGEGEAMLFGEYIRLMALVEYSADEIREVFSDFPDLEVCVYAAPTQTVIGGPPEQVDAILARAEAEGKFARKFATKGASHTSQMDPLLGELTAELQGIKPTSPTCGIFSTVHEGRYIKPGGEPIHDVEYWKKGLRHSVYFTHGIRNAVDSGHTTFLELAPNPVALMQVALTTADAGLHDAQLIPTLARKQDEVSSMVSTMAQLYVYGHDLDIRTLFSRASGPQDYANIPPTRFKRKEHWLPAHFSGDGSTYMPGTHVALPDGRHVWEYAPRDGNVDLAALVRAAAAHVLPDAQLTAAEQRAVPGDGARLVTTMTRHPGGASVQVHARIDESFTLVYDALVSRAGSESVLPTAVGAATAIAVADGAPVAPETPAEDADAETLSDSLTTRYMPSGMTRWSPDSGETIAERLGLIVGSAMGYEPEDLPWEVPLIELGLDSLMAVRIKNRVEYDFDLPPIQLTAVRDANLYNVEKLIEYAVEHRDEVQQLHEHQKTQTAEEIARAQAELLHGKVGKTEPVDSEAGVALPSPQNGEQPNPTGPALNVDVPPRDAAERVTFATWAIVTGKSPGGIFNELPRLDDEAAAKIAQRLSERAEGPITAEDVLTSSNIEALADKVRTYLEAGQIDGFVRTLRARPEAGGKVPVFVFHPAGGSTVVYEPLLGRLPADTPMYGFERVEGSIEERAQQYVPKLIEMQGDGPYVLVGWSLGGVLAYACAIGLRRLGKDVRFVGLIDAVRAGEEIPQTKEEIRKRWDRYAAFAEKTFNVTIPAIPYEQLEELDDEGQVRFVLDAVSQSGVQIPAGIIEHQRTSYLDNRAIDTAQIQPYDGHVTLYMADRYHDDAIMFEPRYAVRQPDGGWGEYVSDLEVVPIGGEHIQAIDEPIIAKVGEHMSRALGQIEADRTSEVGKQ
UniProt A4I591, 1-473: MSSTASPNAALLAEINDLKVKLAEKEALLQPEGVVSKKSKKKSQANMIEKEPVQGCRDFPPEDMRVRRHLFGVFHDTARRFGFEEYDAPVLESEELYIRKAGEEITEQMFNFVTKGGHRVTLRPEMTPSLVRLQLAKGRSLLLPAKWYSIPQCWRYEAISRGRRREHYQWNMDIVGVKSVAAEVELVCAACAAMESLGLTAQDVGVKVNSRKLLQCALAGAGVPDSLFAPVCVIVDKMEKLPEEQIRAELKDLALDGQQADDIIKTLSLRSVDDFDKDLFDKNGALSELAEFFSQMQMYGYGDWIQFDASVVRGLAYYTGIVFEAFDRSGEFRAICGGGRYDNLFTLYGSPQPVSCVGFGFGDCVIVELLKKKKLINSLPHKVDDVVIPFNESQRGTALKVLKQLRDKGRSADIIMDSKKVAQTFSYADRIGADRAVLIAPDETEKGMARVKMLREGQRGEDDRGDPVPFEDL

Values are the deposited “Percent Effect”, in %. The record does not define 0% and 100%; most values in the screen are far below 50% and negative numbers occur (in some assays of this library far below -100). This is an unselected part of the compounds tested. Two or more numbers in one place are separate tests of the same structure; such repeats can differ widely. A dash means the value is not listed here; it may have been measured.

A: 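Cell assay of Leishmania donovani living inside macrophages; the read-out is not stated. Tested at 30 µM. Direction is inferred from retests: higher values go with stronger inhibition. About 69,000 compounds were tested under these conditions; 1.5% (about 1,000) showed 50% or more at least once.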
B: 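Enzyme assay of the thioesterase domain of polyketide synthase 13; the read-out is not stated. Target: Polyketide synthase Pks13, Mycobacterium tuberculosis (UniProt I6X8D2). Compounds at 30 µM. Higher reads as stronger inhibition (inferred from which compounds were picked for retests). Of about 67,000 compounds tested this way, about 300 (0.46%) reached 50% or more in at least one test.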
C: 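Enzyme assay of histidyl-tRNA synthetase; the read-out is not stated. Target: Histidine-tRNA ligase, Leishmania infantum (UniProt A4I591). Concentration: 30 µM. The record gives no direction; compounds that gave an IC50 in retests scored well above the rest, so higher reads as stronger inhibition. The assay is labelled LdHisRS but filed under L. infantum. Of about 69,000 compounds tested this way, about 410 (0.6%) reached 50% or more in at least one test.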

SMILES | A | B | C
CN(C)Cc1cc(C2CCN(C(=O)C3CC34CCC4)CC2)nn1C.Cl (stereo not shown) | 1.777% | - | -
CCc1n[nH]c(C2CN(C(=O)c3cnc(C)cn3)CCO2)n1 (stereo not shown) | 7.977% | 7.007% | 1.923%
CN(C)CCOCC1CN(C(=O)c2ccnnc2)Cc2ccnn2C1 (stereo not shown) | - | -7.276% | 17.14%
CN(C)C(=O)NC1COC2(CCN(C(=O)c3ccc(Cl)cc3)CC2)C1 (stereo not shown) | 14.12% | -24.82% | 23.3%
O[C@]12CCNC[C@H]1CN(c1ncccc1Cl)CC2 | - | -16.29% | 18.37%
COCCC1(C(=O)NCCc2nncn2C2CC2)CCC1 | 20.36% | -18.97% | 15.97%
O=C(NCc1ccc(-n2cncn2)nc1)c1cc(Cl)ccn1 | -83.73% | 7.023% | -17.65%
CN(Cc1ccsc1)C(=O)c1cc(S(=O)(=O)N(C)C)ccc1Cl | 1.786% | -34.22% | 2.667%
O=C(c1ccco1)N1C[C@H]2CCCN(Cc3cccs3)[C@H]2C1 | - | - | 13.73%
CCn1cnnc1CNC(=O)N1CCN(c2ccccc2O)CC1 | 1.403% | -11.97% | 17.39%
CCC(CC)n1nc(C)cc1NC(=O)C1CCCO1 (stereo not shown) | 20.6% | -17.12% | 16.44%
[H][C@]12CCN(C(=O)C3CC3)[C@@]1([H])CC[C@@H](COCc1csc(C)n1)O2 | -5.058% | - | -
CC(NC(=O)CN1CCCC1=O)c1ccc(Cl)s1 (stereo not shown) | 11.81% | 4.631% | 5.263%
CCC(=O)N1CCCN(Cn2nc(C)c(Br)c2C)CC1 | -2.566% | -3.504% | 4.082%
CN(Cc1ccco1)C[C@H]1OC[C@@H]2CCN(Cc3nccs3)C[C@@H]21 | - | -13.72% | 13.21%
N#CCCCS(=O)(=O)NC(=O)c1cccc(Cl)c1F | 11.27% | -22.91% | 14.47%
Cc1nc2c(c(C)c1CC(=O)Nc1cccc(C#N)c1)c(=O)[nH]n2C | -9.883% | -19.44% | -93.33%
COc1ccc2c(ccn2CC(=O)Nc2n[nH]c(CC(C)C)n2)c1 | 16.12% | -9.647% | 23.91%
O=C(O)C(F)(F)F.O=C(O)C(F)(F)F.O=C(O)C(F)(F)F.c1ccc(CN2CCc3ncnc(N4CCCC4)c3CC2)nc1 | 18.55% & 14.21% | - | -
COCc1ncn2c1CN(C(=O)c1cnc3ccccc3c1)CC2 | 2.957% | -21.49% | 11.11%
Cc1noc(CNC(=O)[C@@H](C)NC(=O)OC(C)(C)C)n1 | 9.628% | -15.97% | 20.88%
Cn1c(=O)c2c(n3ncnc13)NC(=O)CC2c1cccc(F)c1 (stereo not shown) | -1.985% | -15.02% | 2.759%
CC(C)c1nccc([C@@H]2C[C@@H]3CCN(Cc4ccco4)C[C@H]3O2)n1 | - | -17.16% | 14.55%
Cc1noc(CCCC(=O)N2CCCCC2CNS(C)(=O)=O)n1 (stereo not shown) | -20.49% & 1.119% | 0.1399% | 10.26%
Cc1nc(S(=O)(=O)CCn2cccn2)n(C2CCCCC2)c1C | 21.76% | -45.24% | 19.48%
[H][C@@]12CCN(Cc3ccoc3)C[C@]1([H])OCCN(c1cccnc1)C2=O | 1.427% | - | -
Cn1cc(CNCC2(O)CCCN(Cc3ccc(F)c(F)c3)C2=O)cn1 (stereo not shown) | 17.36% | -7.863% | 24.71%
CCc1nc(C2CCCN2C(=O)c2ccc3c(c2)nnn3CC)no1 (stereo not shown) | 5.652% | -10.92% | 6.757%
Cn1nnc2c1CCN(Cc1ccccc1)C2COCC1CC1 (stereo not shown) | 26.44% | -41.31% | 27.01%
CC(=O)NCC(=O)N1Cc2nccn2CC(COc2cccnc2)C1 (stereo not shown) | - | 21.79% | -1150%
Cl.Cl.O=C(NCc1cncc2c1CCN(C1CCOCC1)C2)c1ccco1 | 6.596% | - | -
CC(C)c1cnc(CN(C)C2CCN(CCn3cc(C#N)cn3)C2)o1 (stereo not shown) | 15.86% | 3.069% | 14.04%
CC(C)(C)NC(=O)CN1CCCC(c2ccc(C(=O)O)cc2)C1 (stereo not shown) | 12.79% | -3.031% | 17.65%
Fc1cccc(-c2nnn3c2COC(CNCc2nccs2)C3)c1 (stereo not shown) | - | -49.44% | 0%
Cc1ccsc1[C@@H]1CCN(C(=O)CCc2nc3ccccc3[nH]2)C[C@H]1O | -10.96% | -24.74% | 20.55%
CCN(CC)C(=O)CN1CCC2(C=Cc3cc(Cl)c(C)cc3O2)CC1 | -18.11% | -5.287% | 16.11%
Cn1cc(N2CC3(CCN(Cc4nccn4C)C3)CC2=O)cn1 (stereo not shown) | - | 1.38% | 21%
CNc1nc(CNC(=O)Nc2cccc(-c3nnco3)c2)cs1 | 0.9775% | -15% | 9.231%
CC(=O)N[C@@H]1CN(Cc2nc3ccccc3[nH]2)C[C@H]1c1ccc(C)o1 | 22.32% | -14.14% | 15.71%
CC(=O)N1CCC(Cc2nccnc2-c2c(C)n[nH]c2C)C1 (stereo not shown) | 10.16% | 3.629% | 3.125%
Cc1ccnc(CC(C)N(C)c2cc(C3CCNCC3)nc(C)n2)c1 (stereo not shown) | 4.605% | 5.956% | 10.53%
CNS(=O)(=O)c1ccc(C(=O)NCc2ccnc(OC)c2)cc1 | -1.79% | -2.902% | 15.04%
CN(Cc1ccc(F)cc1)C(=O)c1ccoc1CN1CCNC(=O)C1 | 3.401% | -9.023% | 21.35%

The first 3 entries again:

CN(C)Cc1cc(C2CCN(C(=O)C3CC34CCC4)CC2)nn1C.Cl (stereo not shown) gave A: 1.777%.
CCc1n[nH]c(C2CN(C(=O)c3cnc(C)cn3)CCO2)n1 (stereo not shown) gave A: 7.977%; B: 7.007%; C: 1.923%.
CN(C)CCOCC1CN(C(=O)c2ccnnc2)Cc2ccnn2C1 (stereo not shown) gave B: -7.276%; C: 17.14%.

Source: ChEMBL document CHEMBL3988442, “University of Dundee, Small-Polar-MMV Screening Library” (2021).